Data as given in PubChem BioAssay AID602196 (INSERM, 2012).
Shown is an unselected part of about 23,000 reagents tested. In the full data, 455 (2%) got an active call. 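Active includes both protection and sensitisation; some change values fall well beyond the stated -50 to +50 range.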 A number with no mark means an inactive call. Further read-outs or replicates are left out here. Not given: the amount of reagent.

Aim: 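Modifiers of cisplatin sensitivity in A549 cells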
System: human A549 lung cancer cells
Reagent: siRNA pair against human genes
Timing: 48 h transfection before cisplatin; time from cisplatin to read-out not stated
Conditions: cisplatin at a dose killing half of control-siRNA cells; exact dose and duration not given
Read-out: 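Shift in cisplatin death relative to control siRNA, from -50 (all cells die) to +50 (no cells die); siRNAs harmful on their own scored 0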
Direction: two-siRNA summed score (-2 to +2): higher = both siRNAs protect from cisplatin killing; -2 means both sensitise
Active means: 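Each siRNA scores 0 if harmful alone by LDH or WST-1, otherwise +1 if it reduces and -1 if it increases cisplatin killing; a gene is active when both siRNAs agree (sum +2 or -2)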
Calls: active = both siRNAs shift cisplatin killing the same way; inactive = no consistent shift, or siRNA harmful alone

LOC387867
- two-siRNA summed score (-2 to +2): 0

SLC51A
- two-siRNA summed score (-2 to +2): 1

RBBP6
- two-siRNA summed score (-2 to +2): 0

SNX9
- two-siRNA summed score (-2 to +2): 0

LASP1
- two-siRNA summed score (-2 to +2): -1

CPA3
- two-siRNA summed score (-2 to +2): 0

LOC441462
- two-siRNA summed score (-2 to +2): 0

SLC9B2
- two-siRNA summed score (-2 to +2): 0

NME6
- two-siRNA summed score (-2 to +2): 0

KRT32
- two-siRNA summed score (-2 to +2): 1

PRRC1
- two-siRNA summed score (-2 to +2): 0

KCNIP4
- two-siRNA summed score (-2 to +2): 0

MANBAL
- two-siRNA summed score (-2 to +2): 0

LINC00518
- two-siRNA summed score (-2 to +2): 1

FLJ23529
- two-siRNA summed score (-2 to +2): 0

MIIP
- two-siRNA summed score (-2 to +2): 0

KAT7
- two-siRNA summed score (-2 to +2): -1

LDHC
- two-siRNA summed score (-2 to +2): 0

MFSD6L
- two-siRNA summed score (-2 to +2): 0

NCAPG
- two-siRNA summed score (-2 to +2): 0

LINC00469
- two-siRNA summed score (-2 to +2): 0

GNB5
- two-siRNA summed score (-2 to +2): -1

RHOXF1
- two-siRNA summed score (-2 to +2): 0

RAC3
- two-siRNA summed score (-2 to +2): -1

MYADM
- two-siRNA summed score (-2 to +2): 0

KIAA0319L
- two-siRNA summed score (-2 to +2): -1

THNSL1
- two-siRNA summed score (-2 to +2): 0

LOC392726
- two-siRNA summed score (-2 to +2): 0

LOC440254
- two-siRNA summed score (-2 to +2): 1

UCK2
- two-siRNA summed score (-2 to +2): 2 (active)

YWHAEP5
- two-siRNA summed score (-2 to +2): 0

4 entries from above, set out differently:
gene,two-siRNA summed score (-2 to +2)
RAC3,-1
MYADM,0
KIAA0319L,-1
THNSL1,0
